Results from PubChem BioAssay AID2685 (National Center for Advancing Translational Sciences (NCATS), 2010).
The other results are listed elsewhere or left out. Shown are side measurements of this screen, not its main read-out; they come without a call. Compounds called inactive in the main read-out are mostly missing here. Potencies come from curve fits of mixed quality, noted in brackets.

Test: qHTS Assay for Lipid Storage Modulators in Drosophila S3 Cells;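 for cell number change: cells counted by Cell Tracker Red CMTPX staining in the red channel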
Settings: BODIPY lipid droplet fluorescence, 18-24 h; for cell number change: measured here: cell count max response, cells fed with added oleic acid
How it was run: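 Drosophila S3 cells loaded with oleic acid (400 uM, as added) and compounds at several concentrations; lipid droplets imaged by 488-nm laser-scanning cytometry, 500–530 nm intensity and object ratio to cell channel. Percent activity normalized to 20 uM Triacsin C.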

[1] = measured here: cell number channel AC50, cells fed with added oleic acid
[2] = measured here: lipid fluorescence (Fed channel) AC50, cells fed with added oleic acid

SMILES	cell number change	AC50 [1]	AC50 [2]
O=C(CN1CCC2(CC1)OCCO2)c1ccc2cc[nH]c2c1	74.6%	29.1 µM [rising, single point]	29.1 µM [rising, single point]
N#C/C(=C\C1CC=CCC1)c1nc2ccccc2[nH]1 (stereo unspecified)	-23.3%		4.61 µM [falling, full curve, poor fit]
CCC(C)NCCOc1ccc(C)cc1[N+](=O)[O-] (stereo unspecified)	-0.0278%		0.82 µM [rising, full curve, poor fit]
COc1ccc(CNC(=O)CN(Cc2ccc(C)cc2)S(=O)(=O)c2ccc(Cl)cc2)cc1	-9.89%	2.06 µM [rising, single point]	6.51 µM [rising, single point]
CCOC(=O)c1sc(=S)n(-c2ccc(OC)cc2)c1C	-9.29%	0.00461 µM [rising, full curve, poor fit]	0.116 µM [rising, full curve, poor fit]
COc1ccc(OC)c(NC(=O)CS(=O)(=O)Cc2nc(-c3ccccc3C)oc2C)c1	23.2%	2.06 µM [rising, single point]	9.2 µM [rising, single point]
CCC(C)NS(=O)(=O)c1ccc(OCC(=O)NCc2ccc3c(c2)OCO3)cc1 (stereo unspecified)	77.9%	7.31 µM [rising, partial curve]	20.6 µM [rising, partial curve]
Cc1nc2c(C)cccn2c(=O)c1NC(=O)COc1ccccc1	1.71%		5.17 µM [falling, full curve]
CCN(Cc1ccccc1)S(=O)(=O)c1ccc(C(=O)N(CCCN(C)C)c2nc3c(C)c(C)ccc3s2)cc1	-82.3%	13 µM [falling, partial curve]	1.84 µM [falling, single point]
CCOc1ccccc1OCCOCCOc1ccccc1[N+](=O)[O-]	-21.7%		8.2 µM [rising, partial curve, poor fit]
Cc1cccc(OCc2nnc(SCc3nc4ccccc4c(=O)[nH]3)o2)c1	2.03%		6.51 µM [rising, single point]
Cc1ccc(OCCn2cc(/C=C3\C(=O)NN(c4ccccc4)C3=O)c3ccccc32)cc1	-44.7%	0.0116 µM [falling, full curve, poor fit]	20.6 µM [falling, partial curve]
CCOC(=O)c1sc(=S)n(CC)c1N	-8.64%		
Cc1oc2cc3oc(=O)c(CCC(=O)N4C[C@H]5C[C@@H](C4)c4cccc(=O)n4C5)c(C)c3cc2c1C	-4.85%		0.58 µM [rising, single point]
COc1ccccc1NC(=O)N1CCCC1C(=O)NCc1ccc2c(c1)OCO2 (stereo unspecified)			7.31 µM [rising, partial curve, poor fit]
COc1ccccc1N(CC(=O)NCc1ccccc1C)S(=O)(=O)c1ccc(C)cc1	-6.58%		
Cc1ccc(CC(CC(=O)Nc2cccc(C(F)(F)F)c2)C(=O)O)cc1 (stereo unspecified)	-43.5%	29.1 µM [falling, single point]	29.1 µM [falling, single point]
CCN1CCN(CC#CCOc2ccccc2OC)CC1	13.1%		13 µM [rising, partial curve]
CN(CC1COCCO1)C(=O)c1cc(COc2c(F)cccc2F)on1 (stereo unspecified)	23.9%		0.00517 µM [rising, full curve, poor fit]

SMILES	cell number change	AC50 [1]	AC50 [2]
Cc1cc(C)c(C)c(S(=O)(=O)N2CCCN(C)CC2)c1C	8.4%		0.206 µM [rising, single point]
COc1cccc(CNCCNC(=O)c2nonc2N)c1	-37.1%	29.1 µM [falling, single point]	16.4 µM [falling, single point]
CCCCCCn1c(NCC)nc2c1c(=O)n(C)c(=O)n2C	-41.9%	1.03 µM [falling, full curve]	2.06 µM [falling, full curve]
O=CN1CCN(C(=O)c2ccc([N+](=O)[O-])cc2)CC1	15.4%		6.51 µM [falling, single point]
Cc1ccc(S(=O)(=O)NCc2ccc(C(=O)NCc3cccnc3)cc2)cc1	18.4%		
Cc1ccc(NC(=O)C2C(c3ccccc3)C2(Cl)Cl)c(C)c1 (stereo unspecified)	47.9%	0.231 µM [rising, full curve]	0.00461 µM [rising, full curve, poor fit]
Cc1c(NC(=O)c2ccc(C(=O)Nc3c(C)n(C)n(-c4ccccc4)c3=O)cc2)c(=O)n(-c2ccccc2)n1C	16.1%		
O=C(CCC1CCCCC1)NCCN1CCOCC1	20.4%		29.1 µM [rising, single point]
Cc1cccc(NC(=S)N/N=C2\CC(C)(C)Oc3ccc(O)cc32)c1	-27.8%		29.1 µM [falling, single point]
CC1(C)CC(CC(=O)O)(c2ccc(F)cc2)CCO1 (stereo unspecified)	11.1%		
N#CCCCC#Cc1ccc2c(c1)COc1c3ccccc3nn1-2	9.64%	0.461 µM [falling, single point]	1.64 µM [falling, partial curve]
CSc1ccccc1NC(=O)c1ccc(CN2CCOCC2)cc1	55.8%	25.9 µM [rising, single point]	
COc1ccc(CCNC(=O)C(=O)NCC2OCCN2S(=O)(=O)c2cc(F)ccc2F)cc1OC (stereo unspecified)	10.4%		
CCC(C)NC(=O)C1CCC(CNS(=O)(=O)c2ccc3c(c2)N(C(C)=O)CCO3)CC1 (stereo unspecified)	-3.54%		
CCOc1ccc(N2CC(C(=O)NCc3ccco3)CC2=O)cc1 (stereo unspecified)	12.9%		0.13 µM [rising, full curve, poor fit]
Cc1ccc(C)c(Nc2nn3c(=O)c4ccc(C(=O)NCc5cccnc5)cc4nc3s2)c1		1.64 µM [falling, partial curve]	
COc1ccc(CN(C)C(=O)[C@H](Cc2ccccc2)NC(=O)c2ccco2)c(OC)c1	-10.9%		6.51 µM [falling, single point]
N#Cc1cccc(C(=O)N(CCc2ccccc2)Cc2cccs2)c1	-22.2%		
COc1ccc2nc(NC(=O)CCNC(=O)c3ccco3)sc2c1			9.2 µM [falling, partial curve, poor fit]

SMILES	cell number change	AC50 [1]	AC50 [2]
Cc1cc2oc(=O)cc(CN(C)Cc3ccccc3)c2cc1C(C)C	18.7%	4.11 µM [rising, single point]	
CC1C(=O)N2CCCc3cc(NC(=O)c4ccccc4Br)cc1c32 (stereo unspecified)	58.6%	11.6 µM [rising, partial curve, poor fit]	
COc1cc(NC(=S)N2CCCC(CO)C2)cc(OC)c1 (stereo unspecified)	4.72%		
COC(=O)CC1(c2ccc(OC)cc2)C(=O)c2ccccc2C1=O	-21.1%	4.11 µM [falling, single point]	1.64 µM [falling, partial curve, poor fit]
COc1ccc2c(c1)OC[C@H]1[C@H]2N2C(=O)CN(Cc3ccc(F)cc3)C(=O)[C@@]2(C)[C@H]1c1ccccc1	8.47%		
COc1ccc(NC(=O)CN(C)C(=O)Cc2ccc3c(c2)CCC3)cc1	37.4%	9.2 µM [rising, partial curve]	0.517 µM [rising, partial curve]
COc1ccc(NC(=O)N(Cc2cc3cc(OC)c(OC)cc3[nH]c2=O)CC2CCCO2)cc1 (stereo unspecified)	5.48%		0.411 µM [rising, full curve, poor fit]
O=C(Cn1nnc(-c2ccc3c(c2)OCO3)n1)N1CCOCC1	-9.47%		8.2 µM [falling, partial curve]
CC(=O)Nc1ccc(Oc2cncc(Cl)c2)nc1	4.26%		
O=C(CSc1nnc(NC2CCCCC2)s1)N1CCOCC1	-17.8%		0.461 µM [falling, full curve, poor fit]
CCOc1ccc(-n2cc(-c3ccccc3)c3c(N4CCOCC4)ncnc32)cc1	7.9%	1.03 µM [falling, partial curve]	
Cc1ccccc1S(=O)(=O)Nc1ncnc2ccccc12			29.1 µM [rising, single point]
O=C1NC(=S)S/C1=C/c1ccc(OC(=O)c2ccco2)cc1	0.427%		6.51 µM [falling, single point]
CCCNC(=O)C1CC(=O)N(c2ccc(OCc3ccc(Cl)cc3)cc2)C1 (stereo unspecified)	-1.76%		
Cc1ccc(N2CCN(/N=C/c3sccc3C)CC2)cc1	48.7%	7.31 µM [rising, partial curve, poor fit]	6.51 µM [rising, single point]
CN1CCN(Cc2nc3cc(NC(=O)COc4ccc([N+](=O)[O-])cc4)ccc3n2C)CC1	40.6%	29.1 µM [rising, single point]	29.1 µM [rising, single point]
COc1ccc([N+](=O)[O-])cc1N(CC(=O)N1CCN(Cc2ccccc2)CC1)S(C)(=O)=O	21.5%		18.4 µM [rising, single point]
Cc1cccc(N2CCN(S(=O)(=O)c3ccc4[nH]c(=O)c(=O)[nH]c4c3)CC2C)c1 (stereo unspecified)	-33.1%	29.1 µM [falling, single point]	0.13 µM [falling, full curve, poor fit]
COc1ccc(CCNc2ccc(N3C(=O)CC(C)C3=O)cc2[N+](=O)[O-])cc1OC (stereo unspecified)	-37.2%	8.2 µM [falling, partial curve]	13 µM [falling, partial curve]
